Source: the supplement of paper PMC5355238
Counter-ions that a name gives are not always drawn. Some of the results follow. Most values lie at the level of the controls, where differences are scatter.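 Reh, a human leukemia cell line, is read out by flow cytometry as the median γH2AX antibody signal in S-phase cells; the score counts standard deviations from the median difference of each paired plate set. Scores above 2.5 were candidate hits; scores below -2 mark compounds lowering MK1775-induced damage.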

System: Reh
Test: Z' of S-phase gammaH2AX difference (drug + MK1775 minus drug alone) (Z-score); higher = stronger synergistic S-phase DNA damage with MK1775
Details: MK1775 concentration 400 nM; first compound 10 µM; 4 h

SMILES	Z' of S-phase gammaH2AX difference (Z-score)
CN/C(=N\CCSCc1nc[nH]c1C)NC#N [Cimetidine] + C=CCn1c(=O)c2cnc(Nc3ccc(N4CCN(C)CC4)cc3)nc2n1-c1cccc(C(C)(C)O)n1 [MK1775]	inactive: -0.524
c1ccc(C2CN3CCSC3=N2)cc1 (single isomer, unassigned; (-)) [(-)-Tetramisole hydrochloride] + C=CCn1c(=O)c2cnc(Nc3ccc(N4CCN(C)CC4)cc3)nc2n1-c1cccc(C(C)(C)O)n1 [MK1775]	inactive: -0.543
NC(=O)c1ccc(I)c([N+](=O)[O-])c1 [Iniparib (BSI-201)] + C=CCn1c(=O)c2cnc(Nc3ccc(N4CCN(C)CC4)cc3)nc2n1-c1cccc(C(C)(C)O)n1 [MK1775]	inactive: 0.0451
O=C(O)c1cc2cc(Cc3cccnc3)ccc2o1 [Furegrelate sodium] + C=CCn1c(=O)c2cnc(Nc3ccc(N4CCN(C)CC4)cc3)nc2n1-c1cccc(C(C)(C)O)n1 [MK1775]	inactive: -0.25
COC(=O)Nc1ccc(-c2nc(N3CCOCC3)c3cnn(C4CCN(C(=O)OC)CC4)c3n2)cc1 + C=CCn1c(=O)c2cnc(Nc3ccc(N4CCN(C)CC4)cc3)nc2n1-c1cccc(C(C)(C)O)n1 [MK1775]	inactive: -0.112
CCCCCCCCCC[Si](C)(C)CCC(=O)NC(Cc1ccc(C)cc1)c1ccccc1 (stereo not given) [Sandoz 58-035] + C=CCn1c(=O)c2cnc(Nc3ccc(N4CCN(C)CC4)cc3)nc2n1-c1cccc(C(C)(C)O)n1 [MK1775]	inactive: -0.611
COc1ccccc1NC(=O)Nc1nc(-c2cccnc2)nc2ccccc12 + C=CCn1c(=O)c2cnc(Nc3ccc(N4CCN(C)CC4)cc3)nc2n1-c1cccc(C(C)(C)O)n1 [MK1775]	inactive: 0.524
COCc1nc2c([nH]1)c(=O)n(C)c(=O)n2CC(C)C [8-Methoxymethyl-3-isobutyl-1-methylxanthine] + C=CCn1c(=O)c2cnc(Nc3ccc(N4CCN(C)CC4)cc3)nc2n1-c1cccc(C(C)(C)O)n1 [MK1775]	inactive: 0.262
NC(=O)OCC(COC(N)=O)c1ccccc1 [Felbamate] + C=CCn1c(=O)c2cnc(Nc3ccc(N4CCN(C)CC4)cc3)nc2n1-c1cccc(C(C)(C)O)n1 [MK1775]	inactive: -0.347
CCCCS(=N)(=O)CCC(N)C(=O)O (racemic) [DL-Buthionine-[S,R]-sulfoximine] + C=CCn1c(=O)c2cnc(Nc3ccc(N4CCN(C)CC4)cc3)nc2n1-c1cccc(C(C)(C)O)n1 [MK1775]	inactive: -0.0768
